According to PubChem BioAssay AID330 (DTP/NCI, 2004):
The list does not hold the whole screen: it gathers tests that were run many times, whatever their T/C, doses with no T/C, and many T/C values between a quarter and a half above the control. Other doses and runs of a compound stand elsewhere. T/C: endpoint of the treated group in % of that of the vehicle group. Some entries give survivors of the animals treated and no T/C: the source files T/C as zero there, which appears to mark a toxic dose or a test without result, not a measured value. Some doses without a T/C left all or most animals alive at the check, yet need not have been tolerated: the source hardly ever lists a survival T/C far under the control, and the zero likely stands for such cases as well. Survivors were counted at the toxicity check, usually on the fifth day, unless a day is given; later deaths do not show. Schedules are NCI's codes, taken here to give the interval after Q, in days (D) or hours (H), and the number of doses after X. Some entries hold several experiments; the values are given in rising order. Some molecules as drawn cover several salts, stereoisomers or complexes of the source; a dose is that of the sample tested. Counts like (3×) stand for listed records that agree. Where survival is the endpoint, the PubChem record calls one and a half times the control and up active, and a quarter to a half above the control has no call in these data; cut-offs in other NCI protocols can differ.

Tested on: P388 leukemia ip, CD2F1 mice, survival T/C
Assay: NCI In Vivo Anticancer Drug Screen. Data for tumor model P388 Leukemia (intraperitoneal) in CD2F1 (CDF1) mice
Conditions: T/C endpoint: median survival time, higher T/C = longer survival
[1] = dose: 50.0 mg/kg/injection, schedule: Q01DX009 (ip), vehicle: saline with Tween-80
[2] = dose: 100.0 mg/kg/injection, schedule: Q01DX009 (ip), vehicle: saline with Tween-80
[3] = dose: 200.0 mg/kg/injection, schedule: Q01DX009 (ip), vehicle: saline with Tween-80
[4] = dose: 100.0 mg/kg/injection, schedule: Q01DX005 (ip), vehicle: saline with Tween-80
[5] = dose: 200.0 mg/kg/injection, schedule: Q01DX005 (ip), vehicle: saline with Tween-80
[6] = dose: 240.0 mg/kg/injection, schedule: Q01DX005 (ip), vehicle: saline with Tween-80
[7] = dose: 50.0 mg/kg/injection, schedule: Q01DX005 (ip), vehicle: Klucel (hydroxypropylcellulose) (HPC)
[8] = dose: 100.0 mg/kg/injection, schedule: Q01DX005 (ip), vehicle: Klucel (hydroxypropylcellulose) (HPC)
[9] = dose: 200.0 mg/kg/injection, schedule: Q01DX005 (ip), vehicle: Klucel (hydroxypropylcellulose) (HPC)
[10] = dose: 25.0 mg/kg/injection, schedule: Q01DX009 (ip), vehicle: saline
[11] = dose: 200.0 mg/kg/injection, schedule: Q01DX009 (ip), vehicle: saline

With `O=C(CBr)c1ccc(C(F)(F)F)cc1` the survivor count (dose: 25.0 mg/kg/injection, schedule: Q01DX009 (ip), vehicle: DMSO) was 4 of 6, the survivor count (dose: 50.0 mg/kg/injection, schedule: Q01DX009 (ip), vehicle: DMSO) was 0 of 6 and the survivor count (dose: 100.0 mg/kg/injection, schedule: Q01DX009 (ip), vehicle: DMSO) was 0 of 6. For the same molecule, the survivor count (dose: 200.0 mg/kg/injection, schedule: Q01DX009 (ip), vehicle: DMSO) was 0 of 6.

`Cc1cccc(C)c1NC(=S)N(C)C` was tested, and the survivor count (dose: 25.0 mg/kg/injection, schedule: Q01DX009 (ip), vehicle: saline with Tween-80) was 6 of 6, the survivor count [1] was 2 of 6 and the survivor count [2] was 2 of 6.

`COc1cc(/C=C/C(=O)c2ccc(OCc3ccccc3)cc2OC(C)=O)c(OC)c(OC)c1OC` was tested, and the survivor count (dose: 400.0 mg/kg/injection, schedule: Q01DX001 (ip), vehicle: Klucel (hydroxypropylcellulose) (HPC)) was 6 of 6.

For `O=[N+]([O-])c1ccc2c(c1)Cc1cc(N(CCCl)CCCl)ccc1-2`, the survivor count (dose: 50.0 mg/kg/injection, schedule: Q01DX009 (ip), vehicle: Klucel (hydroxypropylcellulose) (HPC)) was 6 of 6, the survivor count (dose: 100.0 mg/kg/injection, schedule: Q01DX009 (ip), vehicle: Klucel (hydroxypropylcellulose) (HPC)) was 6 of 6 and the survivor count (dose: 200.0 mg/kg/injection, schedule: Q01DX009 (ip), vehicle: Klucel (hydroxypropylcellulose) (HPC)) was 6 of 6. The survivor count (dose: 400.0 mg/kg/injection, schedule: Q01DX009 (ip), vehicle: Klucel (hydroxypropylcellulose) (HPC)) was 6 of 6.

With `CCOC(=O)C1=C(C(=O)c2cccc3ccccc23)C(c2ccc([N+](=O)[O-])cc2)C(C(=O)c2cccc3ccccc23)=C(C(=O)OCC)N1` the survivor count (dose: 120.0 mg/kg/injection, schedule: Q01DX005 (ip), vehicle: Klucel (hydroxypropylcellulose) (HPC)) was 6 of 6.

`CC1CN1CCS(=O)(=O)CCN1CC1C` (centres undefined) was tested, and the T/C [3] was 127 % of control.

`CN(C)c1ccc(/C=C/c2ccc3ccccc3n2)cc1` was tested, and the survivor count (dose: 200.0 mg/kg/injection, schedule: Q04DX003 (ip), vehicle: saline with Tween-80) was 6 of 6 and the survivor count (dose: 400.0 mg/kg/injection, schedule: Q04DX003 (ip), vehicle: saline with Tween-80) was 6 of 6.

With `O/N=C\c1cc2ccccc2c[n+]1Cc1ccc2ccc3cccc4ccc1c2c34` the survivor count (dose: 25.0 mg/kg/injection, schedule: Q01DX005 (ip), vehicle: saline with Tween-80) was 3 of 6, the survivor count (dose: 50.0 mg/kg/injection, schedule: Q01DX005 (ip), vehicle: saline with Tween-80) was 1 of 6 and the survivor count [4] was 0 of 6. For the same molecule, the survivor count [5] was 0 of 6.

In the case of `CCCCCCCC(=O)N/N=C/c1ccc(O)c(OCC)c1`, the survivor count [5] is reported as 5 of 5.

For `CCCCOC(=O)C1C2CCC(O2)C1C(N)=O` (centres undefined), the survivor count [6] was 0 of 6.

For `CC(C)=CC[P+](CCCCCC[P+](CC=C(C)C)(c1ccccc1)c1ccccc1)(c1ccccc1)c1ccccc1`, the survivor count (dose: 6.25 mg/kg/injection, schedule: Q01DX005 (ip), vehicle: Klucel (hydroxypropylcellulose) (HPC)) was 4 of 6, the survivor count (dose: 12.5 mg/kg/injection, schedule: Q01DX005 (ip), vehicle: Klucel (hydroxypropylcellulose) (HPC)) was 0 of 6 and the survivor count (dose: 25.0 mg/kg/injection, schedule: Q01DX005 (ip), vehicle: Klucel (hydroxypropylcellulose) (HPC)) was 0 of 6. The survivor count [7] was 0 of 6, the survivor count [8] was 0 of 6 and the survivor count [9] was 0 of 6.

For `Cc1cccc(C)c1Nc1nnc(-c2ccc(N(C)C)cc2)s1`, the survivor count [6] was 6 of 6.

In the case of `CCCCCCCCCCCCCCCC[N+](C)(C)CCN=[N+]=[N-]`, the survivor count [1] is reported as 1 of 6.

In the case of `C[n+]1c2ccccc2c(Cc2ccccc2)c2ccccc21`, the survivor count [4] is reported as 1 of 6 and the survivor count [5] is reported as 0 of 6.

In the case of `Cc1ccc2occ(/C=N/NC(N)=S)c(=O)c2c1`, the survivor count [5] is reported as 6 of 6.

`COc1cc([C@@H]2c3cc4c(c(OC)c3C[C@H]3COC(=O)[C@@H]32)OCO4)cc(OC)c1OC` was tested, and the survivor count [8] was 6 of 6 and the survivor count [9] was 3 of 6.

For `Cc1ccc(C(=O)C(CN(C)C)CN(C)C)cc1`, the T/C (dose: 6.25 mg/kg/injection, schedule: Q01DX009 (ip), vehicle: saline) was 126 % of control, the T/C (dose: 12.5 mg/kg/injection, schedule: Q01DX009 (ip), vehicle: saline) was 128, 132, 135 % of control and the T/C [10] was 136 and 139 % of control. For the same molecule, the survivor count [10] was 0 of 6 and 1 of 6, the survivor count (dose: 50.0 mg/kg/injection, schedule: Q01DX009 (ip), vehicle: saline) was 0 of 6 and 1 of 6 and the survivor count (dose: 100.0 mg/kg/injection, schedule: Q01DX009 (ip), vehicle: saline) was 0 of 6 (2×). For the same molecule, the survivor count [11] was 0 of 6 (2×).

`CC1(C)C=C(C(Br)c2ccccc2)C(=O)c2ccccc21` (centres undefined) was tested, and the T/C (dose: 66.0 mg/kg/injection, schedule: Q01DX009 (ip), vehicle: other) was 128 % of control, the T/C (dose: 100.0 mg/kg/injection, schedule: Q01DX009 (ip), vehicle: other) was 127 and 128 % of control and the survivor count (dose: 400.0 mg/kg/injection, schedule: Q01DX009 (ip), vehicle: other) was 3 of 6.

With `C=C1C(=O)C23C(O)CC4C5(C)CCCC4(C(O)OC5)C2C(OC(C)=O)CC1C3O` (centres undefined) the T/C (dose: 8.0 mg/kg/injection, schedule: Q01DX009 (ip), vehicle: other) was 127 % of control and the T/C (dose: 32.0 mg/kg/injection, schedule: Q01DX009 (ip), vehicle: other) was 132 % of control.

For `COC(=O)c1cc(=O)nc(NN)s1`, the survivor count [5] was 3 of 5.

For `O=C(CCSSCCC(=O)ON1C(=O)CCC1=O)ON1C(=O)CCC1=O`, the survivor count [1] was 6 of 6, the survivor count [2] was 6 of 6 and the survivor count [3] was 6 of 6.

In the case of `ClC1=NOC(c2ccccc2)C1` (centres undefined), the survivor count (dose: 400.0 mg/kg/injection, schedule: Q01DX005 (ip), vehicle: distilled water + Tween-80) is reported as 0 of 6.

`CC1CCC(C(C)C)/C(=N/NC(=O)c2cccnc2)C1` (centres undefined) was tested, and the survivor count [8] was 1 of 6 and the survivor count [9] was 0 of 6.

For `CN(C)Cc1[nH]c2ccccc2c1Sc1ccccc1`, the survivor count [6] was 3 of 6.

For `CC([NH-])C[NH-].CC([NH-])C[NH-].CC([NH-])C[NH-].[Co]` (centres undefined), the survivor count (dose: 200.0 mg/kg/injection, schedule: Q04DX003 (ip), vehicle: water) was 4 of 6.

For `CCCCCCCCCCCCCCCCCC[N+]1([O-])CCOCC1`, the survivor count [11] was 0 of 6.

For `C=C1C[C@@H](O)[C@H](O)[C@@]2(C)C[C@@H]3OC(=O)C(=C)[C@@H]3C[C@H]12`, the T/C [10] was 125 % of control.

In the case of `CCc1nc(N)nc(N)c1-c1ccc(Cl)c(NN=NC)c1`, the survivor count [5] is reported as 0 of 6.

In the case of `CC1(C)O[C@H]2CC(=O)OC[C@]23[C@H]2CC[C@@]4(C)C(c5ccoc5)OC(=O)[C@H]5O[C@]54[C@]2(C)[C@@H](OC(=O)CCl)C[C@@H]13` (some centres undefined), the survivor count (dose: 2.0 mg/kg/injection, schedule: Q01DX009 (ip), vehicle: saline + alcohol) is reported as 4 of 6, the survivor count (dose: 4.0 mg/kg/injection, schedule: Q01DX009 (ip), vehicle: saline + alcohol) is reported as 0 of 6 and the survivor count (dose: 8.0 mg/kg/injection, schedule: Q01DX009 (ip), vehicle: saline + alcohol) is reported as 0 of 6.

`[Cl][Mn][Cl]` was tested, and the survivor count (dose: 1.0 mg/kg/injection, schedule: Q01DX009 (ip), vehicle: saline) was 5 of 6, the survivor count (dose: 4.0 mg/kg/injection, schedule: Q01DX009 (ip), vehicle: saline) was 5 of 6 and 6 of 6 and the survivor count (dose: 8.0 mg/kg/injection, schedule: Q01DX009 (ip), vehicle: saline) was 6 of 6. For the same molecule, the survivor count (dose: 16.0 mg/kg/injection, schedule: Q01DX009 (ip), vehicle: saline) was 6 of 6, the survivor count (dose: 32.0 mg/kg/injection, schedule: Q01DX009 (ip), vehicle: saline) was 5 of 6 and 6 of 6 and the survivor count (dose: 128.0 mg/kg/injection, schedule: Q01DX009 (ip), vehicle: saline) was 1 of 6. For the same molecule, the survivor count (dose: 128.0 mg/kg/injection, schedule: Q01DX009 (ip), vehicle: suspension in saline) was 0 of 6 and the survivor count (dose: 256.0 mg/kg/injection, schedule: Q01DX009 (ip), vehicle: suspension in saline) was 0 of 6.

`C/C(=N\NC(=S)N1CCCCCC1)c1nccnc1C` was tested, and the T/C [7] was 130 % of control, the T/C [8] was 130 % of control and the survivor count [8] was 1 of 6. The survivor count [9] was 0 of 6.
